{"source": "patent US20100183597A1", "about": "“DRAK2 EXPRESSION IS ASSOCIATED WITH DIABETES” (priority 2007, published 2010)", "system": "NIT-1 cells", "assay": "Apoptosis of NIT-1 cells by annexin V staining and flow cytometry", "type": "cell-based, mouse", "excerpt": "Drak2 Tg and WT islets were digested with 0.05% trypsin-EDTA to obtain single cell suspensions. The cells were fixed with 4% paraformaldehyde and permeabilized with 0.2% Triton X-100. They were stained with rabbit anti-Drak2 Ab (Abgent, San Diego, Calif.; 1:50 dilution) and anti-insulin mAb (Sigma, St. Louis, Mo.; 1:500 dilution). Subsequently, they were stained with FITC-conjugated sheep anti-rabbit antibody (Chemicon, Temecula, Calif.), and PE-conjugated goat anti-mouse antibody (Jackson Immunoresearch, West Grove, Pa.), and analyzed by 2-color flow cytometry. Dispersed islet cells or small interfering RNA (siRNA)-transfected NIT-1 cells were also analyzed for apoptosis by flow cytometry using FITC-annexin V staining (Murakami et al., 2004). […]\nDispersed islet cells were fixed with 4% paraformaldehyde and permeabilized with 0.2% Triton X-100. For Drak2 and insulin detection, the cells were stained as described for confocal microscopy, and analyzed by 2-color flow cytometry. Dispersed islet cells or small interfering RNA (siRNA)-transfected NIT-1 cells were also analyzed for apoptosis by flow cytometry with FITC-annexin V staining (Murakami et al., 2004)). […]\nNIT-1 cells were treated with IFN-g+IL-1b for 72 hours, with or without […] rapamycin. Drak2 siRNA were transfected to some cells at 24 hour, the apoptosis of cells were measured with Annexin-v staining.", "note": "At least one structure is not confirmed: it was looked up by name or label, or the drawing left a doubt.", "data": [{"smiles": "CO[C@H]1C[C@@H]2CC[C@@H](C)[C@@](O)(O2)C(=O)C(=O)N2CCCC[C@H]2C(=O)O[C@H]([C@H](C)C[C@@H]2CC[C@@H](O)[C@H](OC)C2)CC(=O)[C@H](C)/C=C(\\C)[C@@H](O)[C@@H](OC)C(=O)[C@H](C)C[C@H](C)/C=C/C=C/C=C/1C", "note": "[rapamycin]", "values": [{"measurement": "apoptosis induced by IFN-γ+IL-1β (annexin V)", "setting": "72 h, rapamycin 250 nM, Drak2 siRNA transfected at 24 h, alone or combined (FIG. 18)", "value": "reduce apoptosis"}, {"measurement": "apoptosis upon inflammatory cytokine exposure (annexin V)", "setting": "IFN-γ plus IL-1β or TNF-α plus IL-1β, 48 h, rapamycin 250 nM (FIG. 15D)", "value": "reduced apoptosis"}]}]}
